According to the supplement of paper PMC9135407:
Where “and” joins values, the source holds several entries; their conditions need not be identical. Equal values may be shown once. Where a name gives a salt, the structure may show the parent alone. ± gives the standard deviation of the averaged measurements. The list shows a part of the results. Baselines shift from plate to plate; read single values as rough.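 Culture-activated primary human stellate myofibroblasts, where regained lipid droplets signal inactivation. Value: share of Hoechst-counted cells above a per-plate Bodipy cutoff, in duplicate wells, with DMSO negative and nortriptyline positive controls on each plate. Hits: a control-normalized score above the plate's top-tenth-percentile nortriptyline wells, or one of a plate's three best wells. Final well concentrations are not given.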

Tested on: primary human hepatic stellate cells (donor 1)
Test: percent Bodipy-positive cells; higher = more lipid droplet accumulation
Conditions: 48 h
[1] = library stock concentration: 1 mM
[2] = library stock concentration: 10 mM
[3] = library stock concentration: 3.33 mM

Which “percent Bodipy-positive cells” value [1] does the source give for `CCCCC[C@](C)(O)/C=C/[C@H]1[C@H](O)CC(=O)[C@@H]1CCCCCCC(=O)O` [15(S)-15-methyl Prostaglandin E1] here?
The value was 19.9 ± 0.4%.

With `CC(Cc1ccc(O)c(O)c1)(NN)C(=O)O` (stereo not drawn) [S-(-)-Carbidopa] as the molecule, how does the “percent Bodipy-positive cells” value [2] read?
The value was 53.1 ± 5.5%.

For `CC(Cc1ccc(O)c(O)c1)(NN)C(=O)O` [(S)-(-)-Carbidopa], which “percent Bodipy-positive cells” value [2] is on record?
The value was 5.63 ± 1.4%.

`CCCn1c(=O)[nH]c2nc(-c3ccc(S(=O)(=O)O)cc3)[nH]c2c1=O` was tested. Which “percent Bodipy-positive cells” value [2] did it give?
Its value is 3.42 ± 0.81%.

`CCCCCCCCCC(=O)NC(CN1CCOCC1)[C@H](O)c1ccccc1` (stereo partly drawn) was tested. Which “percent Bodipy-positive cells” value [2] did it give?
Its value is 38.3 ± 9.6%.

What does the source list for `CN(C)c1ccc(O)c2c1C[C@H]1C[C@H]3[C@H](N(C)C)C(O)=C(C(N)=O)C(=O)[C@@]3(O)C(O)=C1C2=O` [Minocycline hydrochloride]?
percent Bodipy-positive cells: 12.6 ± 0.56%; percent Bodipy-positive cells (library stock concentration: 4 mM): 3 ± 0.68%; percent Bodipy-positive cells [2]: 43.1 ± 9%

Which “percent Bodipy-positive cells” value (library stock concentration: 4.4 mM) does the source give for `CN(C)c1ccc(O)c2c1C[C@H]1C[C@H]3[C@H](N(C)C)C(O)=C(C(N)=O)C(=O)[C@@]3(O)C(O)=C1C2=O` [Minocycline HCl] here?
The value was 7.96 ± 1.5%.

For `CN(C)c1ccc(O)c2c1C[C@H]1C[C@H]3[C@H](N(C)C)C(O)=C(C(N)=O)C(=O)[C@@]3(O)C(O)=C1C2=O`, which “percent Bodipy-positive cells” value [2] is on record?
The value was 26.9 ± 0.33%.

How did the “percent Bodipy-positive cells” value (library stock concentration: 5 mM) turn out when `COc1cccc(OC)c1C(=O)N[C@@H]1C(=O)N2[C@@H]1SC(C)(C)[C@@H]2C(=O)O` [Methicillin sodium] was run?
The value was 2.84 ± 0.32%.

And the “percent Bodipy-positive cells” value [2]?
Its value is 23.9 ± 2.8%.

`Cc1ccc(S(=O)(=O)NC(=O)NN2CCCCCC2)cc1` was tested. Which “percent Bodipy-positive cells” value [2] did it give?
Its value is 34 ± 3.2%.

Which “percent Bodipy-positive cells” value does the source give for `Cc1ccc(S(=O)(=O)NC(=O)NN2CCCCCC2)cc1` [Tolazamide] here?
Its value is 23.6 ± 0.68%.

And the “percent Bodipy-positive cells” value (library stock concentration: 6.4 mM)?
The value was 9.44% and 18.4%.

And the “percent Bodipy-positive cells” value [2]?
Its value is 12.5% and 22.9%.

And the “percent Bodipy-positive cells” value (library stock concentration: 16.1 mM)?
Its value is 20.5 ± 1.4%.

How did the “percent Bodipy-positive cells” value [2] turn out when `COc1cc2c(CCNC(C)=O)c[nH]c2cc1Cl` [6-Chloromelatonin] was run?
The value was 37.1% and 12.8%.

For `CCCCC[C@H](O)/C=C/[C@H]1[C@@H](O)CC(=O)[C@@H]1CCCCCCC(=O)O` [11.beta.-Prostaglandin E1], which “percent Bodipy-positive cells” value [1] is on record?
Its value is 18.5 ± 6.1%.

Which “percent Bodipy-positive cells” value [2] does the source give for `Cn1cccc1/C=C1\C(=O)NC(=O)c2ccccc21` here?
The value was 13.2 ± 5.2%.

Which “percent Bodipy-positive cells” value [1] does the source give for `CN(C)c1ccc(C(=O)NCCCCCC(=O)NO)cc1` here?
The value was 19 ± 5%.

With `CCCCCC(=O)/C=C/[C@@H]1[C@@H](CCCCCCC(=O)O)[C@@H](O)C[C@H]1O` [15-keto Prostaglandin F1.alpha.] as the molecule, how does the “percent Bodipy-positive cells” value [1] read?
Its value is 13.8 ± 4.1%.

How did the “percent Bodipy-positive cells” value [2] turn out when `Cl.c1cc(OCCN2CCCCC2)cc(-c2n[nH]c3ccc(-c4nc[nH]n4)cc23)c1` was run?
Its value is 97.2 ± 2.4%.

Which “percent Bodipy-positive cells” value [2] does the source give for `C=CCn1c(=O)c2c(nc(-c3ccc(S(=O)(=O)O)cc3)n2C)n(C)c1=O` [1-Allyl-3,7-dimethyl-8-p-sulfophenylxanthine] here?
The value was 35.81 ± 0.3%.

For `C[C@]12CC[C@@H]3c4ccc(OS(=O)(=O)O)cc4CC[C@H]3[C@@H]1CCC2=O`, which “percent Bodipy-positive cells” value [2] is on record?
The value was 17.1 ± 6.8%.

With `C[C@]12CC[C@@H]3c4ccc(OS(=O)(=O)O)cc4CC[C@H]3[C@@H]1CCC2=O` [Estropipate] as the molecule, how does the “percent Bodipy-positive cells” value read?
Its value is 9.56 ± 2%.

With `CCOC(=O)c1ccc(N)cc1` [Benzocaine] as the molecule, how does the “percent Bodipy-positive cells” value read?
The value was 10.9 ± 0.78%.

And the “percent Bodipy-positive cells” value [3]?
The value was 10.6 ± 2.5%.

And the “percent Bodipy-positive cells” value [2]?
Its value is 37.8% and 12.8%.

And the “percent Bodipy-positive cells” value (library stock concentration: 12.1 mM)?
Its value is 3.14 ± 0.27%.

Which “percent Bodipy-positive cells” value [3] does the source give for `CCCCCCCCCCCCc1ccc(S(=O)(=O)Nc2nncs2)cc1` here?
Its value is 10.8 ± 3.4%.

And the “percent Bodipy-positive cells” value [2]?
The value was 28.8 ± 3.3%.

With `CC1c2ccccc2CN1CC1=NCCN1` (stereo not drawn) as the molecule, how does the “percent Bodipy-positive cells” value [2] read?
Its value is 6.49 ± 0.93%.

Which “percent Bodipy-positive cells” value [1] does the source give for `CCCCCCCCCCCCCCC(F)C(=O)O` (stereo not drawn) [2-Fluoropalmitic Acid] here?
Its value is 8.13 ± 1.1%.

`CCCCCCCCCCCCCCC(F)C(=O)O` (stereo not drawn) [2-Fluoropalmitic acid] was tested. Which “percent Bodipy-positive cells” value [1] did it give?
The value was 9.9 ± 8.9%.

Which “percent Bodipy-positive cells” value [3] does the source give for `OC(CCCN1CCCCC1)(c1ccccc1)c1ccccc1` [Diphenidol HCl] here?
Its value is 14.4 ± 1.6%.

And the “percent Bodipy-positive cells” value [2]?
The value was 55.4 ± 14%.

With `OC(CCCN1CCCCC1)(c1ccccc1)c1ccccc1` [Diphenidol hydrochloride] as the molecule, how does the “percent Bodipy-positive cells” value read?
The value was 43.6 ± 2.5%.
